# Data taken from US20260234660A1, “TREATMENT OF MUSCLE RELATED DISORDERS WITH ANTI-HUMAN CACNG1 ANTIBODIES” (Regeneron Pharmaceuticals, Inc., priority 2023, published 2026).
# The chains behind the UniProt entries cited, without tags or fusion partners. Where a name states a change or a piece, a line headed by the entry shows the natural chain unless it says otherwise.
# UniProt Q06432: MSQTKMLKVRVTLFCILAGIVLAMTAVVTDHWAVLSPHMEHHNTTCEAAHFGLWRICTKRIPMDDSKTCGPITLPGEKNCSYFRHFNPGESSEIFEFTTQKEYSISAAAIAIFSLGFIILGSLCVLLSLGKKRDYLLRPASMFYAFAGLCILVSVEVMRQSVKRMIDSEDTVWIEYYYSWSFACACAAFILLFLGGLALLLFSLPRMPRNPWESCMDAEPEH
# These are yes or no findings as the source states them, for the method shown. Some entries that bind do so weakly or less than the wild type.
# Key:
# [1] = target: human CACNG1, cell surface-expressed (human) (UniProt Q06432); experiment: human myotubes in vitro; closing statement of Example 4 (antibodies of FIG. 2)
# [2] = target: nanodisc embedded human CACNG1 expressed with a C-terminal PADRE-Flag-His tag (human) (UniProt Q06432); experiment: SPR (Biacore T200), 25 C, anti-His-captured human CACNG1 nanodisc
Binder,binding [1],binding [2]
"H2aM31944N (antibody, mouse IgG2a, kappa, V domains shown) VH: QVQLVESGGGVVQPGRSLRLSCEASGITFRNYGMHWVRQAPGKGLEWVAVMWYDGSNKYYADSVKGRFTISRDNSKNTVYLQMNSLRAEDTAVYYCARRGHIATAAPFDYWGQGTLVTVSS VL: DIQMTQSPSSLSASVGDRVTISCRASQSISSYLNWYQQKPGKAPKVLMYAASSLQSGVPSRFSGSGSGTDFTLTISSLQPEDFATYYCQQSYSTPPITFGQGTRLEIKR",binds,binds
"REGN10713 (antibody, human IgG4 S228P, lambda, V domains shown) VH: EVQLVESGGNLVQPGGSLRLSCAASGFTFTSHAMNWVRQAPGKGLEWVSVITGRGFDTHYADSVKGRFTISRDISKNTLYLQMNSLRAEDTAVYYCAKGLYDSGNYYIDYWGQGTLVTVSS VL: QSVLTQPPSVSAAPGQKVTISCSGSSSNIGNNYVSWYQQLPGTAPKLLIYDNNKRPSGIPDRFSGSKSGTSATLGITGLQTGDEADYYCGTWDLSLSFNWVFGGGTKLTVLG",–,binds
"REGN10715 (antibody, human IgG4 S228P, kappa, V domains shown) VH: QVQLQQWGAGLLKPSATLSRTCAVYGGSFSGYYWNWIRQSPGKGLEWIGEILHSGRTNYNPSLKSRVTISVDTSKNQFSLKLTSVTAADTAVYYCAGRIAARHGWFDPWGQGTLVTVSS VL: DIQMTQSPSSVSTSVGDRVTISCRASQDIRKWLAWYQQKPGKAPKLLIYATSSLQSGVPSRFSGSGSGTDFTLTISSLQPEDFATYFCQQANSFPFTFGQGTKLEIKR",–,binds
"REGN10716 (antibody, human IgG4 S228P, kappa, V domains shown) VH: QVQLQESGPGLVKPSETLSLTCTVSGDSINNYYWTWLRQPPGKGLEWIGYIYYSGSANYNPSLKSRVTISVDTSKNQFSLKLNSVTAADTAVYYCARGAVKYFRHWGQGTLVTVSS VL: EIVLTQSPGTLSLSPGERATLSCRASQTINHNNLAWYQQRPGQAPRLLIYGASNRATAIPDRFSGSGSGTDFTLTISRLEPEDFEVYSCQQYGSLPLTFGGGTKVEIKR",–,binds

# Results, then the binder that gave them:
binding [1],binding [2],Binder
–,binds,"REGN9909 (antibody, mouse IgG2a, kappa, V domains shown) VH: EVQLLESGGGLVQPGGSLRLSCAASGFTFNNYGMSWVRQGPGKGLEWVSSISGSGGTTFYADSVKGRFTISRDNSKNTLYLQMNSLRAEDTAVYYCGKGGYCSSSGCRHYGMDVWGQGTTVTVSS VL: QSVLTQPPSASGTPGQRVTISCSGSSSNIGNNYIYWYQRLPGTTPKLLIYRNNQRPSGVPDRFSGSKSGTSASLAISGLRSEDEADYYCAAWDDTLSGYVFGTGTKVTVLR"
–,binds,"REGN10717 (antibody, human IgG4 S228P, kappa, V domains shown) VH: QVQLVESGGGVVQPGRSLRLSCAASGFTFSTYGMHWVRQAPGKGLEWVAVIWHDGSDKYYVDSVKGRFSIARDNSKNTLYLQMNSLRVEDTGIYYCARRGIRGTVFDHWGLGTLVTVSS VL: DIQMTQSPSTLSASVGDRVTLTCRASQSISNKLAWYQQKPGKAPNLLIYKASNLESGVPSRFSGSGSGTEFTLTISSLQPDDFATYYCQQYNSYSWTFGQGTKVEIKR"
